Experimental data: patent US20250288512A1, “USE OF CELL MEMBRANE-BOUND SIGNALING FACTORS” (AIVITA Biomedical, Inc., priority 2016, published 2025)

Tested on: hESC
Assay: Capture of lipid-modified Wnt/Shh proteins from embryonic stem cell cultures by cyclodextrin solution
Assay type: cell-based, human
Settings: 10 mM cyclodextrin solution
Experimental: Embryonic stem cells were expanded according to current published methods using a serum free media supplemented with bFGF (10 ng/ml) and activin A (5 ng/ml) on an adherent substrate consisting on a thin layer of MATRIGEL®. After confluence, half of the cultures were fed with the same media not including the growth factors bFGF and Activin A. A cell culture supernatant sample was analyzed for follistatin concentration.
Individual cultures, undifferentiated or partial differentiated, were exposed to 10 mM solution of α-cyclodextrin, β-cyclodextrin, γ-cyclodextrin, or methyl-β-cyclodextrin (MBCD) for 60 min to 180 min. The cell cultures before exposure were smooth, compact, and multilayered (FIG. 5A). After incubation with a cyclodextrin, the cultures were disrupted with the majority of cells losing adherence (FIG. 5B).
The MBCD solution incubated with the cells was then analyzed for the concentration of Shh, Wnt 3a, and Wnt7a.

| Structure (SMILES) | Capture effect compared with methyl-β-cyclodextrin |
| --- | --- |
| OC[C@H]1O[C@@H]2O[C@H]3[C@H](O)[C@@H](O)[C@@H](O[C@H]4[C@H](O)[C@@H](O)[C@@H](O[C@H]5[C@H](O)[C@@H](O)[C@@H](O[C@H]6[C@H](O)[C@@H](O)[C@@H](O[C@H]7[C@H](O)[C@@H](O)[C@@H](O[C@H]1[C@H](O)[C@H]2O)O[C@@H]7CO)O[C@@H]6CO)O[C@@H]5CO)O[C@@H]4CO)O[C@@H]3CO [α-cyclodextrin] | reduced but proportional effect |
| OC[C@H]1O[C@@H]2O[C@H]3[C@H](O)[C@@H](O)[C@@H](O[C@H]4[C@H](O)[C@@H](O)[C@@H](O[C@H]5[C@H](O)[C@@H](O)[C@@H](O[C@H]6[C@H](O)[C@@H](O)[C@@H](O[C@H]7[C@H](O)[C@@H](O)[C@@H](O[C@H]8[C@H](O)[C@@H](O)[C@@H](O[C@H]1[C@H](O)[C@H]2O)O[C@@H]8CO)O[C@@H]7CO)O[C@@H]6CO)O[C@@H]5CO)O[C@@H]4CO)O[C@@H]3CO [β-cyclodextrin] | reduced but proportional effect |
